# Measurements published in article PMC12276012, “Molecular mechanisms of biomolecular condensate formation in Drosophila melanogaster siRNA biogenesis”.
# Construct, isoform or probe ends are uncertain for at least one entry. For part of these data: The comparison behind a weaker result is the experiment's own reference, which may not be listed here. Protein sequences can lack the tags named with them. For part of these data: At least one verdict was read from the data and is not stated in words by the source.
# What was measured:
# [1] = tested on: T1, Loqs-PD N-term (Drosophila melanogaster); assay: NMR titration; settings: 100 uM protein, 25 uM RNA, PS-I buffer, weak binding at low salt; NMR: 20 mM sodium phosphate pH 6.5, PS-I or PS-II buffer (50-500 mM NaCl), 292 K for Loqs-PD deltaC; recombinant protein; protein details: tag cleaved
# T1 sequence (looked up, limits assumed): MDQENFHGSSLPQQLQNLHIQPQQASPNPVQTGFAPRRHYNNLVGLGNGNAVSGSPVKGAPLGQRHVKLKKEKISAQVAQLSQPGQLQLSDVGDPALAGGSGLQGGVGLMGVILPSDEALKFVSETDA
# [2] = tested on: T2, Loqs-PD deltaC (Drosophila melanogaster); assay: NMR titration; settings: 100 uM protein, up to 1:0.25 RNA, 50 and 150 mM NaCl; NMR: 20 mM sodium phosphate pH 6.5, PS-I or PS-II buffer (50-500 mM NaCl), 292 K for Loqs-PD deltaC; recombinant protein; protein details: tag cleaved
# T2 sequence (looked up, limits assumed): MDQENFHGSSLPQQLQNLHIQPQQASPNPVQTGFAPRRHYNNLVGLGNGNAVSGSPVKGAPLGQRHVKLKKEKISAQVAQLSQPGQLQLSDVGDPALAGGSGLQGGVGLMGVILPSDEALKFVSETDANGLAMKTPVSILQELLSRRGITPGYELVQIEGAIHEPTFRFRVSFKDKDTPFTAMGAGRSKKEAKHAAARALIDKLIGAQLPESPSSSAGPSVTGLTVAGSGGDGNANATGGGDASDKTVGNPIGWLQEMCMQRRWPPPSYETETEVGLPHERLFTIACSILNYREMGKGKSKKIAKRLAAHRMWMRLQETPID
# [3] = tested on: T3, Loqs-PD WT (full length) (Drosophila melanogaster); assay: EMSA; settings: 400 nM RNA, 100-3200 nM protein; 3' pCp-Cy5 ligated (adds one C); EMSA: 20 mM sodium phosphate pH 6.5, 150 mM NaCl, 15% glycerol, 15 min, 1% agarose 1x TBE; recombinant protein; residues 1-359; protein details: His6-GB1 or His6 tag, cleaved by TEV; label: 3' Cy5
# T3 sequence (looked up): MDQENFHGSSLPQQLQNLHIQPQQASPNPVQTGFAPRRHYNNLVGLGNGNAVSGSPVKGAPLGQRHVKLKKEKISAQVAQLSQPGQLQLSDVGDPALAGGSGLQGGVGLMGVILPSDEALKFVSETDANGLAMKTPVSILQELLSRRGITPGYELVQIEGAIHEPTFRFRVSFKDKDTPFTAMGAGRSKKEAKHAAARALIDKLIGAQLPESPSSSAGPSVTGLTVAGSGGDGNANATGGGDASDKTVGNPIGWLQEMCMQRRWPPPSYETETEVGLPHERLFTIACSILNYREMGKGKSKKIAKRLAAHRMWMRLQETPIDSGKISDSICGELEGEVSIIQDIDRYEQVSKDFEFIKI
Sequence,binding result [1],binding result [2],binding result [3]
GGAGCUUUCAAAAUGAUCUCCGUGAGGAGAUCAUUUUGAAAGCUCC [21 bp hairpin dsRNA],binds more weakly,binds,–
"GGAGCUUUCAAAAUGAUCUCCGUGAGGAGAUCAUUUUGAAAGCUCC [21 bp hairpin dsRNA, Cy5]",–,–,binds
